{"source": "PubChem BioAssay AID540256", "about": "(National Center for Advancing Translational Sciences (NCATS), 2011)", "note": "Among all 300,000 compounds or so, about 3,700 (1.2%) were called active. Inconclusive results, whose numbers are uncertain, are shown with a selection of clear calls. The call rests on the fitted dose curve; tested in HEK293 cells. Potencies of inconclusive entries are doubtful fits and often do not repeat. On the % scale 0 is the no-effect control and ±100 the full control effect; potency means the concentration at half of the fitted maximal effect.", "data": [{"assay": "qHTS for Inhibitors of binding or entry into cells for Lassa Virus; further: nearly all actives have a fitted effect of over 50% in size", "settings": "Lassa virus pseudotype entry inhibition, cell reporter; activity change, negative = inhibition: at 37.9 µM (top of the series) unless noted", "values": [{"smiles": "O=C(Nc1ccc(Br)cc1)c1ccc2ncsc2c1", "Potency": "inconclusive: 20 µM [inhibitor, single point]"}, {"smiles": "CC(C)=CCN1CCN(Cc2cnc(C)s2)CC1CCO", "note": "(stereo unspecified)", "Potency": "inactive"}, {"smiles": "Cc1cc(C)n(CCC(=O)N/N=C/c2ccc(O)cc2O)n1", "Potency": "inconclusive: 11.2 µM [inhibitor, partial curve]"}, {"smiles": "CCCCCOc1ccc(C(=O)C(c2ccccc2)N2CCOCC2)cc1", "note": "(stereo unspecified)", "Potency": "inconclusive: 29.1 µM [inhibitor, single point]"}, {"smiles": "COc1cccc(CNc2ncn[nH]2)c1OCc1ccc(F)cc1", "Potency": "inconclusive: 20 µM [inhibitor, single point]"}, {"smiles": "CC(=O)c1ccc(NC(=O)c2ccc(-c3nc(CSc4ccc(C)cc4)c(C)o3)cc2)cc1", "Potency": "inactive"}, {"smiles": "CCOc1ccc(NC(=O)c2cccnc2Cl)c([N+](=O)[O-])c1", "Potency": "inactive"}, {"smiles": "COC(=O)C(CC(=O)c1cccc(OC)c1)c1ccc(F)cc1", "note": "(stereo unspecified)", "Potency": "inconclusive: 3.16 µM [inhibitor, full curve, poor fit]"}, {"smiles": "CCOC(=O)c1[nH]c(C)c(C(=O)N2CCN(c3ccccc3)CC2)c1C", "Potency": "inactive"}, {"smiles": "Cc1cccc(Oc2cc([N+](=O)[O-])cc3c2C(=O)Nc2ccccc2O3)c1", "Potency": "inconclusive: 8.91 µM [inhibitor, partial curve, poor fit]"}, {"smiles": "CC(C)(C)c1nc(SCC(=O)Nc2ccc(N3CCOCC3)cc2)c2ccccc2n1", "Potency": "inconclusive: 32.6 µM [inhibitor, single point]"}, {"smiles": "OCCN1CCN(CC(O)COCCOc2ccc(Br)cc2)CC1", "note": "(stereo unspecified)", "Potency": "inconclusive: 5.62 µM [inhibitor, single point]"}, {"smiles": "CSc1cccc(NC(=S)N(CCN(C)C)C(C)c2ccccn2)c1", "note": "(stereo unspecified)", "Potency": "inconclusive: 10 µM [inhibitor, partial curve, poor fit]"}, {"smiles": "O=C(/C=C/c1ccc(Br)o1)NC(c1ccccc1)c1ccccc1", "Potency": "inconclusive: 10 µM [inhibitor, partial curve]"}, {"smiles": "Cc1cccc(OS(=O)(=O)NC(=O)OCC2CCCN3CCCCC23)c1", "note": "(stereo unspecified)", "Potency": "inactive"}, {"smiles": "CC(C)NC(=O)OC[C@@H]1CSCCS(=O)(=O)N1", "Potency": "inconclusive: 0.0887 µM [inhibitor, full curve, poor fit]"}, {"smiles": "COc1ccc(C2CC(=O)c3cc(-c4nc(-c5cccc([N+](=O)[O-])c5)cs4)c(=O)n(-c4cccc(C)c4)c3C2)cc1", "note": "(stereo unspecified)", "Potency": "inactive"}, {"smiles": "COc1ccccc1-n1c(-c2ccccc2)c[n+]2c1CCc1ccccc1-2", "Potency": "active: 2.82 µM"}, {"smiles": "CCC(C)NC(=O)c1ccc(CNS(=O)(=O)c2ccc3c(c2)C(C)(C)C(=O)N3C)cc1", "note": "(stereo unspecified)", "Potency": "inactive"}, {"smiles": "CSc1nc(N)nc2c1ncn2Cc1ccccc1", "Potency": "inactive"}, {"smiles": "Cc1ccccc1CN(C)CC(=O)Nc1c(C)cccc1C(C)C", "Potency": "inconclusive: 10 µM [inhibitor, partial curve, poor fit]"}, {"smiles": "C1CCc2c(c(N3CCOCC3)nc3sc4c(N5CCOCC5)nnnc4c23)C1", "Potency": "inconclusive: 1 µM [inhibitor, single point]"}, {"smiles": "CCCCc1ncc(CN2CCC(n3nccc3NC(=O)c3ccccc3Cl)CC2)[nH]1", "Potency": "inactive"}, {"smiles": "NC(=O)Nn1c(CCC(=O)O)ccc1-c1ccc(Br)cc1", "Potency": "inactive"}, {"smiles": "O=C(CSCc1ccccc1)N1CCc2ccccc21", "Potency": "inconclusive: 1 µM [activator, full curve]"}, {"smiles": "CCn1c(Cc2ccccc2)nnc1SCC(=O)NC1CC1", "Potency": "inactive"}, {"smiles": "CC(Oc1ccc(NC(=O)c2ccco2)cc1)C(=O)N1c2ccccc2CC1C", "note": "(stereo unspecified)", "Potency": "inconclusive: 13 µM [inhibitor, partial curve, poor fit]"}, {"smiles": "O=C(CCCCCNC(=O)c1ccccc1)N/N=C/c1ccccc1O", "Potency": "inconclusive: 4.47 µM [activator, partial curve, poor fit]"}, {"smiles": "CN(CC(=O)Nc1ccc(F)cc1)C(=O)COc1ccccc1Cc1ccccc1", "Potency": "inconclusive: 22.4 µM [inhibitor, single point]"}, {"smiles": "O=C(NCc1ccccn1)c1ccc(Cl)c(S(=O)(=O)N2CCOCC2)c1", "Potency": "inactive"}, {"smiles": "COc1ccc(-c2c3c(nc4sc(C(=O)Nc5cccc(OC)c5)c(N)c24)CC(C)(C)CC3=O)cc1", "Potency": "inactive"}, {"smiles": "CCC1(c2ccc(Cl)cc2)NC(=S)N(c2ccccc2)N1", "note": "(stereo unspecified)", "Potency": "inactive"}, {"smiles": "COc1ccccc1CNC(=O)CN1C(=O)c2cccc(N)c2C1=O", "Potency": "inconclusive: 11.2 µM [inhibitor, single point]"}, {"smiles": "CCC(=NC1CC1)c1c(O)n(-c2ccc(OC)cc2)c(=O)[nH]c1=O", "Potency": "inconclusive: 8.91 µM [inhibitor, partial curve, poor fit]"}, {"smiles": "COc1ccc(Br)cc1C(=O)Nc1ccccc1N1CCN(C(=O)c2ccccc2)CC1", "Potency": "inconclusive: 2.82 µM [inhibitor, full curve, poor fit]"}, {"smiles": "O=C(CSc1nc2ccccc2nc1Cc1ccccc1)N1CCc2ccccc21", "Potency": "inactive"}, {"smiles": "Cn1c(-c2c(N)n(CCc3ccccc3)c3nc4ccccc4nc23)nc2ccccc21", "Potency": "inactive"}, {"smiles": "CN1CCC(O)(c2cccs2)C(C(=O)c2cccs2)C1", "note": "(stereo unspecified)", "Potency": "inconclusive: 35.5 µM [inhibitor, single point]"}, {"smiles": "Cc1cc(C)n(-c2nc(NCc3cccnc3)c3c4c(sc3n2)COC(C)(C)C4)n1", "Potency": "inactive"}, {"smiles": "Cc1cccc(C)c1NC(=O)CCCSc1nnc(-c2ccco2)n1-c1ccccc1", "Potency": "inconclusive: 35.5 µM [inhibitor, single point]"}, {"smiles": "COc1ccc(NC(=S)NCCCN2CCCC2=O)c(OC)c1", "Potency": "inconclusive: 1.41 µM [activator, partial curve, poor fit]"}, {"smiles": "CCc1nn(CC(=O)NCc2ccccc2)c(=O)c2cccn12", "Potency": "active: 11.2 µM"}, {"smiles": "O=C(NCCS(=O)(=O)N1CCN(c2cccc(Cl)c2)CC1)C(c1ccccc1)c1ccccc1", "Potency": "inconclusive: 14.1 µM [inhibitor, partial curve, poor fit]"}, {"smiles": "C/C(=N/OCO/N=C(\\C)c1ccccc1)c1ccccc1", "Potency": "inconclusive: 22.4 µM [inhibitor, single point]"}, {"smiles": "Cc1cccc(N2CCN(CCCNC(=O)Cn3ncc4c([nH]c5ccccc54)c3=O)CC2C)c1", "note": "(stereo unspecified)", "Potency": "inactive"}, {"smiles": "O=S(=O)(c1ccc(Br)s1)n1cccn1", "Potency": "inactive"}, {"smiles": "CCOC(=O)c1cnc2c(OC)cccc2c1N1CCN(c2ccccn2)CC1", "Potency": "inconclusive: 11.2 µM [inhibitor, partial curve, poor fit]"}, {"smiles": "NCCNc1ccc(C(=O)N2c3ccccc3Sc3ccccc32)cc1[N+](=O)[O-]", "Potency": "inconclusive: 25.1 µM [inhibitor, single point]"}, {"smiles": "Cc1ccc(CNC(=O)COc2ccc3c(c2)CCC3)cc1", "Potency": "active: 18.4 µM"}, {"smiles": "CCSC1=NCCN1C(=O)c1ccc(S(=O)(=O)N(CC)CC)cc1", "Potency": "inconclusive: 8.91 µM [inhibitor, partial curve, poor fit]"}, {"smiles": "CCOc1ccccc1C(=O)Nc1nccs1", "Potency": "inactive"}, {"smiles": "COc1ccc(NC(=O)Cn2c(=O)n(-c3ccccc3)c(=O)c3oc4ccccc4c32)c(OC)c1", "Potency": "inconclusive: 35.5 µM [inhibitor, single point]"}, {"smiles": "COc1ccc(C(=O)/C=C/Nc2ccc(S(=O)(=O)Nc3nc(C)cc(C)n3)cc2)cc1OC", "Potency": "inconclusive: 35.5 µM [inhibitor, single point]"}, {"smiles": "COc1ccc(/C=C/C(=O)C23CC4CC(CC(C4)C2)C3)cc1CN1CCOCC1", "Potency": "inconclusive: 35.5 µM [inhibitor, single point]"}, {"smiles": "CC(=O)c1ccc(C(=O)N2CCC(CO)(Cc3cccc(C(F)(F)F)c3)CC2)cc1", "Potency": "inconclusive: 28.2 µM [inhibitor, partial curve, poor fit]"}, {"smiles": "COc1ccc(COC(=O)c2ccc(Cl)c(S(=O)(=O)N3CCOCC3)c2)cc1F", "Potency": "inconclusive: 11.2 µM [inhibitor, single point]"}, {"smiles": "Cc1ccccc1C(=O)Oc1cccc2c(O)cccc12", "Potency": "inconclusive: 1.26 µM [inhibitor, single point]"}, {"smiles": "Cc1cccc(Cn2c(=O)n(-c3cc(C)cc(C)c3)c(=O)c3oc4ccccc4c32)c1", "Potency": "inactive"}, {"smiles": "Cn1cc(Cl)c(C(=O)OCC(=O)Nc2cccc(Cl)c2)n1", "Potency": "inconclusive: 11.2 µM [activator, single point]"}, {"smiles": "COc1cc(OC)c(OC)cc1/C=C1\\Oc2cc(OS(C)(=O)=O)ccc2C1=O", "Potency": "inactive"}, {"smiles": "Cc1ccc(Cl)cc1NC(=O)CN1C=NS(=O)(=O)c2ccccc21", "Potency": "inactive"}, {"smiles": "CCOC(=O)c1c(C)[nH]c(C)c1S(=O)(=O)N1CCC(C(=O)Nc2ccccc2CC)CC1", "Potency": "inactive"}, {"smiles": "Clc1ccc2nnnc(-c3ccccc3)c2c1", "Potency": "active: 10.3 µM"}, {"smiles": "CCN(C(=O)CSc1nnc(Nc2ccc(OC)cc2)s1)C1CCS(=O)(=O)C1", "note": "(stereo unspecified)", "Potency": "inactive"}, {"smiles": "COC(=O)c1ccc2nc(C)cc(Nc3ccc(N(C)C)cc3)c2c1", "Potency": "inconclusive: 13 µM [inhibitor, partial curve, poor fit]"}, {"smiles": "CC(NC(=O)Nc1ccc2c(c1)OCO2)C1CCCO1", "note": "(stereo unspecified)", "Potency": "inconclusive: 20.6 µM [activator, single point]"}, {"smiles": "COc1cc(/C=C2\\SC(=S)N(CCC(=O)N3CCCCC3)C2=O)cc(OC)c1OC", "Potency": "inconclusive: 35.5 µM [inhibitor, single point]"}, {"smiles": "CC1CCCC(NC(=O)CCCn2ncn3c(cc4occc43)c2=O)C1C", "note": "(stereo unspecified)", "activity change, negative = inhibition": "inconclusive: 29.9% [activator] [at 46.1 µM]"}, {"smiles": "Cc1ccc(S(=O)(=O)N2CCN(Cc3cc(=O)n4nc(-c5ccccc5Cl)sc4n3)CC2)cc1", "Potency": "inconclusive: 10 µM [activator, partial curve, poor fit]"}, {"smiles": "O=C(NCCc1ccccc1)C(=O)NCC(c1cccs1)S(=O)(=O)c1cccs1", "note": "(stereo unspecified)", "Potency": "inactive"}, {"smiles": "CCn1c2ccccc2c2cc(NC(=O)c3ccco3)ccc21", "Potency": "inconclusive: 23.1 µM [inhibitor, single point]"}]}]}
